Test results: paper PMC5996148
The list shows a part of the results.

Tests used:
Experiment in all cases: protein microarray (ProtoArray v5.0), streptavidin-Alexa Fluor 647
Settings in all cases: 3'-biotin; 20 mM Tris (pH 7.5), 5 mM MgCl2, 100 mM KCl, 0.1% Tween-20, A/T-rich and random oligonucleotide blockers; temperature not stated; high values mean tight binding
[1] = system: Chloride channel protein ClC-Ka (human)
[2] = system: Ciliary neurotrophic factor (human)
[3] = system: Coiled-coil domain-containing protein 115 (human)
[4] = system: Coiled-coil domain-containing protein 126 (human)
[5] = system: Coiled-coil domain-containing protein 15 (human)
[6] = system: Coiled-coil domain-containing protein 28A (human)
[7] = system: Coiled-coil domain-containing protein 5 (human)
[8] = system: Coiled-coil domain-containing protein 6 (human)
[9] = system: Coiled-coil domain-containing transmembrane protein C7orf53 (human)
[10] = system: Complement decay-accelerating factor (human)

“GGGAGGCTGAGGCAGG [G4-1 biotinylated (PQS2)]” showed a binding signal [1] of -0.332 z-score, a binding signal [2] of -0.37 z-score and a binding signal [3] of -0.345 z-score. The binding signal [4] was -0.304 z-score, the binding signal [5] was -0.338 z-score and the binding signal [6] was 4.95 z-score. It also gave a binding signal [7] of -0.319 z-score, a binding signal [8] of -0.342 z-score and a binding signal [9] of -0.348 z-score. The binding signal [10] was -0.325 z-score.
